{"source": "the supplement of paper PMC8728848", "binders": {"B1": {"name": "Thrombomodulin Extracellular (Mus musculus), P15306 (protein)", "chain": "MLGIFFLGVLAPASLGLSALAKLQPTGSQCVEHECFALFQGPATFLDASQACQRLQGHLMTVRSSVAADVISLLLSQSSMDLGPWIGLQLPQGCDDPVHLGPLRGFQWVTGDNHTSYSRWARPNDQTAPLCGPLCVTVSTATEAAPGEPAWEEKPCETETQGFLCEFYFTASCRPLTVNTRDPEAAHISSTYNTPFGVSGADFQTLPVGSSAAVEPLGLELVCRAPPGTSEGHWAWEATGAWNCSVENGGCEYLCNRSTNEPRCLCPRDMDLQADGRSCARPVVQSCNELCEHFCVSNAEVPGSYSCMCETGYQLAADGHRCEDVDDCKQGPNPCPQLCVNTKGGFECFCYDGYELVDGECVELLDPCFGSNCEFQCQPVSPTDYRCICAPGFAPKPDEPHKCEMFCNETSCPADCDPNSPTVCECPEGFILDEGSVCTDIDECSQGECFTSECRNFPGSYECICGPDTALAGQISKDCDPIPVREDTKEEEGSGEPPVSPTPGSPTGPPSARPVHSGVLIGISIASLSLVVALLALLCHLRKKQGAARAELEYKCASSAKEVVLQHVRTDRTLQKF"}}, "assay_in_all_cases": "glycan array binding signal (z-score within array); higher = stronger binding", "settings_in_all_cases": "glycan notation: IUPAC condensed, linker removed", "key": {"[1]": {"target": "Neu5Ac(a2-6)Gal(b1-4)GlcNAc(b1-2)Man(a1-3)[Man(a1-6)]Man(b1-4)GlcNAc(b1-4)GlcNAc", "outline": "(§1)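 The binding signal is a Z-score computed within each array and averaged over linkers. Arrays of the same protein sequence at different concentrations or buffers were also averaged together. Data originate from 3228 arrays in the Consortium for Functional Glycomics database, kept only where the protein sequence was available.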"}, "[2]": {"target": "Neu5Ac(a2-6)Gal(b1-4)GlcNAc(b1-2)Man(a1-3)[Neu5Ac(a2-3)Gal(b1-4)GlcNAc(b1-2)Man(a1-6)]Man(b1-4)GlcNAc(b1-4)GlcNAc", "outline": "as §1"}, "[3]": {"target": "Neu5Ac(a2-6)Gal(b1-4)GlcNAc(b1-2)Man(a1-3)[Neu5Ac(a2-6)Gal(b1-4)GlcNAc(b1-2)Man(a1-6)]Man(b1-4)GlcNAc(b1-4)GlcNAc", "outline": "as §1"}, "[4]": {"target": "Neu5Ac(a2-6)Gal(b1-4)GlcNAc(b1-2)Man(a1-3)[Neu5Ac(a2-6)Gal(b1-4)GlcNAc(b1-2)Man(a1-6)]Man(b1-4)GlcNAc(b1-4)[Fuc(a1-6)]GlcNAc", "outline": "as §1"}, "[5]": {"target": "Neu5Ac(a2-6)Gal(b1-4)GlcNAc(b1-2)Man(a1-6)Man(b1-4)GlcNAc(b1-4)GlcNAc", "outline": "as §1"}, "[6]": {"target": "Neu5Ac(a2-6)Gal(b1-4)GlcNAc(b1-2)Man(a1-6)[Gal(b1-4)GlcNAc(b1-2)Man(a1-3)]Man(b1-4)GlcNAc(b1-4)GlcNAc", "outline": "as §1"}, "[7]": {"target": "Neu5Ac(a2-6)Gal(b1-4)GlcNAc(b1-2)Man(a1-6)[GlcNAc(b1-2)Man(a1-3)]Man(b1-4)GlcNAc(b1-4)GlcNAc", "outline": "as §1"}, "[8]": {"target": "Neu5Ac(a2-6)Gal(b1-4)GlcNAc(b1-2)Man(a1-6)[Man(a1-3)]Man(b1-4)GlcNAc(b1-4)GlcNAc", "outline": "as §1"}, "[9]": {"target": "Neu5Ac(a2-6)Gal(b1-4)GlcNAc(b1-2)[Neu5Ac(a2-6)Gal(b1-4)GlcNAc(b1-4)]Man(a1-3)[GlcNAc(b1-4)][Neu5Ac(a2-6)Gal(b1-4)GlcNAc(b1-2)[Neu5Ac(a2-6)Gal(b1-4)GlcNAc(b1-6)]Man(a1-6)]Man(b1-4)GlcNAc(b1-4)GlcNAc", "outline": "as §1"}, "[10]": {"target": "Neu5Ac(a2-6)Gal(b1-4)GlcNAc(b1-2)[Neu5Ac(a2-6)Gal(b1-4)GlcNAc(b1-4)]Man(a1-3)[GlcNAc(b1-4)][Neu5Ac(a2-6)Gal(b1-4)GlcNAc(b1-4)Man(a1-6)]Man(b1-4)GlcNAc(b1-4)GlcNAc", "outline": "as §1"}, "[11]": {"target": "Neu5Ac(a2-6)Gal(b1-4)GlcNAc(b1-2)[Neu5Ac(a2-6)Gal(b1-4)GlcNAc(b1-6)]Man(a1-6)[Neu5Ac(a2-6)Gal(b1-4)GlcNAc(b1-2)Man(a1-3)][GlcNAc(b1-4)]Man(b1-4)GlcNAc(b1-4)GlcNAc", "outline": "as §1"}, "[12]": {"target": "Neu5Ac(a2-6)Gal(b1-4)GlcNAc(b1-3)Gal(b1-3)GlcNAc", "outline": "as §1"}, "[13]": {"target": "Neu5Ac(a2-6)Gal(b1-4)GlcNAc(b1-3)Gal(b1-4)GlcNAc", "outline": "as §1"}, "[14]": {"target": "Neu5Ac(a2-6)Gal(b1-4)GlcNAc(b1-3)Gal(b1-4)GlcNAc(b1-2)Man(a1-3)[Neu5Ac(a2-6)Gal(b1-4)GlcNAc(b1-3)Gal(b1-4)GlcNAc(b1-2)Man(a1-6)]GalNAc", "outline": "as §1"}, "[15]": {"target": "Neu5Ac(a2-6)Gal(b1-4)GlcNAc(b1-3)Gal(b1-4)GlcNAc(b1-3)Gal(b1-4)GlcNAc", "outline": "as §1"}, "[16]": {"target": "Neu5Ac(a2-6)Gal(b1-4)GlcNAc(b1-3)Gal(b1-4)GlcNAc(b1-3)Gal(b1-4)GlcNAc(b1-2)Man(a1-3)[Neu5Ac(a2-6)Gal(b1-4)GlcNAc(b1-3)Gal(b1-4)GlcNAc(b1-3)Gal(b1-4)GlcNAc(b1-2)Man(a1-6)]GalNAc", "outline": "as §1"}, "[17]": {"target": "Neu5Ac(a2-6)Gal(b1-4)GlcNAc(b1-3)Gal(b1-4)GlcNAc(b1-3)GalNAc", "outline": "as §1"}, "[18]": {"target": "Neu5Ac(a2-6)Gal(b1-4)GlcNAc(b1-3)Gal(b1-4)GlcNAc(b1-3)[Neu5Ac(a2-6)Gal(b1-4)GlcNAc(b1-3)Gal(b1-4)GlcNAc(b1-6)]GalNAc", "outline": "as §1"}, "[19]": {"target": "Neu5Ac(a2-6)Gal(b1-4)GlcNAc(b1-3)Gal(b1-4)GlcNAc(b1-6)[Gal(b1-3)]GalNAc", "outline": "as §1"}, "[20]": {"target": "Neu5Ac(a2-6)Gal(b1-4)GlcNAc(b1-3)Gal(b1-4)[Fuc(a1-3)]GlcNAc(b1-3)Gal(b1-4)[Fuc(a1-3)]GlcNAc", "outline": "as §1"}, "[21]": {"target": "Neu5Ac(a2-6)Gal(b1-4)GlcNAc(b1-3)GalNAc", "outline": "as §1"}, "[22]": {"target": "Neu5Ac(a2-6)Gal(b1-4)GlcNAc(b1-3)[Neu5Ac(a2-6)Gal(b1-4)GlcNAc(b1-6)]GalNAc", "outline": "as §1"}, "[23]": {"target": "Neu5Ac(a2-6)Gal(b1-4)GlcNAc(b1-6)GalNAc", "outline": "as §1"}, "[24]": {"target": "Neu5Ac(a2-6)Gal(b1-4)GlcNAc(b1-6)[Gal(b1-3)GlcNAc(b1-3)]Gal(b1-4)Glc", "outline": "as §1"}, "[25]": {"target": "Neu5Ac(a2-6)Gal(b1-4)GlcNAc(b1-6)[Gal(b1-3)]GalNAc", "outline": "as §1"}, "[26]": {"target": "Neu5Ac(a2-6)Gal(b1-4)GlcNAc6S", "outline": "as §1"}, "[27]": {"target": "Neu5Ac(a2-6)GalNAc", "outline": "as §1"}, "[28]": {"target": "Neu5Ac(a2-6)GalNAc(b1-4)GlcNAc", "outline": "as §1"}, "[29]": {"target": "Neu5Ac(a2-6)GalNAc(b1-4)GlcNAc6S", "outline": "as §1"}, "[30]": {"target": "Neu5Ac(a2-6)GlcNAc(b1-4)GlcNAc", "outline": "as §1"}}, "note": "Some of the results follow.", "data": [{"binder": "B1", "values": [{"measurement": "glycan array binding signal (z-score)", "setting": "[1]", "value": 2.56}, {"measurement": "glycan array binding signal (z-score)", "setting": "[2]", "value": -0.885}, {"measurement": "glycan array binding signal (z-score)", "setting": "[3]", "value": 0.407}, {"measurement": "glycan array binding signal (z-score)", "setting": "[4]", "value": 1.7}, {"measurement": "glycan array binding signal (z-score)", "setting": "[5]", "value": 1.23}, {"measurement": "glycan array binding signal (z-score)", "setting": "[6]", "value": 0.959}, {"measurement": "glycan array binding signal (z-score)", "setting": "[7]", "value": 0.976}, {"measurement": "glycan array binding signal (z-score)", "setting": "[8]", "value": -0.419}, {"measurement": "glycan array binding signal (z-score)", "setting": "[9]", "value": -0.697}, {"measurement": "glycan array binding signal (z-score)", "setting": "[10]", "value": 1.28}, {"measurement": "glycan array binding signal (z-score)", "setting": "[11]", "value": -0.375}, {"measurement": "glycan array binding signal (z-score)", "setting": "[12]", "value": -0.789}, {"measurement": "glycan array binding signal (z-score)", "setting": "[13]", "value": -0.733}, {"measurement": "glycan array binding signal (z-score)", "setting": "[14]", "value": 1.96}, {"measurement": "glycan array binding signal (z-score)", "setting": "[15]", "value": -0.19}, {"measurement": "glycan array binding signal (z-score)", "setting": "[16]", "value": 1.73}, {"measurement": "glycan array binding signal (z-score)", "setting": "[17]", "value": 1.04}, {"measurement": "glycan array binding signal (z-score)", "setting": "[18]", "value": 0.769}, {"measurement": "glycan array binding signal (z-score)", "setting": "[19]", "value": 0.53}, {"measurement": "glycan array binding signal (z-score)", "setting": "[20]", "value": -0.473}, {"measurement": "glycan array binding signal (z-score)", "setting": "[21]", "value": -0.577}, {"measurement": "glycan array binding signal (z-score)", "setting": "[22]", "value": 0.106}, {"measurement": "glycan array binding signal (z-score)", "setting": "[23]", "value": 1.06}, {"measurement": "glycan array binding signal (z-score)", "setting": "[24]", "value": 2.01}, {"measurement": "glycan array binding signal (z-score)", "setting": "[25]", "value": -1.23}, {"measurement": "glycan array binding signal (z-score)", "setting": "[26]", "value": -1.45}, {"measurement": "glycan array binding signal (z-score)", "setting": "[27]", "value": -1.01}, {"measurement": "glycan array binding signal (z-score)", "setting": "[28]", "value": -1.52}, {"measurement": "glycan array binding signal (z-score)", "setting": "[29]", "value": -1.36}, {"measurement": "glycan array binding signal (z-score)", "setting": "[30]", "value": 0.044}]}]}
